Data: patent publication US20180320186A1, “METHOD FOR SITE-SPECIFIC INSERTION OF FOREIGN DNA INTO A GENOME IN AN ANIMAL CELL AND A CELL OBTAINED USING SAME” (INTER-UNIVERSITY RESEARCH INSTITUTE CORPORATION RESEARCH …, priority 2015, published 2018)
At least one structure is not confirmed: it was looked up by name or label, or the drawing left a doubt.

Molecular target: T1, OsTIR protein (Oryza sativa subsp. japonica, UniProt Q7XVM8)
T1 construct: expressed in transfected cells; host or cells: HCT116 cells modified to express OsTIR1
T1 sequence (Q7XVM8 1-575): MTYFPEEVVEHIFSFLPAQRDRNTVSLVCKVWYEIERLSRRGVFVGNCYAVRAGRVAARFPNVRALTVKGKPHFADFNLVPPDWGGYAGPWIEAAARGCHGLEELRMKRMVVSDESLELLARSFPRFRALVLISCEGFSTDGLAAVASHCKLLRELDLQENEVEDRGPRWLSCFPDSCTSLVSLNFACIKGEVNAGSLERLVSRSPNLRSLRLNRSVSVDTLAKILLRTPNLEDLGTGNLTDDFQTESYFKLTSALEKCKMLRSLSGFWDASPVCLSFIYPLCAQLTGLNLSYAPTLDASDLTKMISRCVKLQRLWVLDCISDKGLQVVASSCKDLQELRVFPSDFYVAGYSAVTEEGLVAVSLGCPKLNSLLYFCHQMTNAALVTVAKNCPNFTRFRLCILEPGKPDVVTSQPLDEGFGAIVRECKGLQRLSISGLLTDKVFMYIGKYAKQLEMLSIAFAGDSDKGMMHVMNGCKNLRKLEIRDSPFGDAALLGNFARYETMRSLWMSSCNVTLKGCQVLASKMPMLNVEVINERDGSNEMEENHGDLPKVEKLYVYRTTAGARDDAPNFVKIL
Assay: Western blotting with OsTIR antibody after doxycycline and auxin treatment
Assay type: cell-based
Details: 2 μg/mL doxycycline with 500 μM auxin for 2, 4, 6, 8, 10 and 24 hours

C[C@H]1c2cccc(O)c2C(=O)C2=C(O)[C@]3(O)C(=O)C(C(N)=O)=C(O)[C@@H](N(C)C)[C@@H]3[C@@H](O)[C@@H]21 [doxycycline]
OsTIR protein level (OsTIR antibody): increased with time
